The nature of the assay: qHTS Assay for Lipid Storage Modulators in Drosophila S3 Cells.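 As to cell number change: cells counted by Cell Tracker Red CMTPX staining in the red channel.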 Particulars: BODIPY lipid droplet fluorescence, 18-24 h; for cell number change: measured here: cell count max response, cells fed with added oleic acid. In outline: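 Laser-scanning cytometry quantifies lipid droplet accumulation (500–530 nm total intensity; droplet/cell object ratio) in oleic acid-fed (400 uM added) Drosophila S3 cells treated with a concentration series. 20 uM Triacsin C defined 100% inhibition.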

[1] abbreviates: measured here: cell number channel AC50, cells fed with added oleic acid.
The mark [2] stands for this setting: measured here: lipid fluorescence (Fed channel) AC50, cells fed with added oleic acid.

Some of the results follow. The main result of the screen is listed elsewhere. These columns were measured beside it and carry no call. Compounds called inactive in the main read-out are mostly missing here. Potencies come from curve fits of mixed quality, noted in brackets.

Experimental findings from PubChem BioAssay AID2685 (National Center for Advancing Translational Sciences (NCATS), 2010) are described below.

As a reminder, the AC50 is the midpoint of the concentration-response curve, whichever way the signal moves. A low value points to greater potency.

`CCc1ccc2nc(SCC(=O)Nc3nnc(C)s3)c(C)cc2c1`: the cell number change was -53.4%.

Regarding `N#Cc1ccc(/C=C/C(=O)c2ccccc2)cc1`, the cell number change was -50.4%. The AC50 under setting [1] is 11.6 µM [falling, partial curve]. Further, under setting [2], the AC50 is 5.8 µM [falling, partial curve].

`O=C(CN1CCN(c2ccccc2O)CC1)Nc1ccc2c(c1)OCCCO2`: the cell number change is -5.35%. Also, under setting [2], the AC50 is 0.0259 µM [falling, full curve, poor fit].

Consider `Cc1ccc(/C=N/Nc2cccc(C(=O)O)c2)s1`, for which the cell number change stood at 3.26%. Further, the AC50 under setting [2] was 0.164 µM [falling, full curve, poor fit].

Consider `O=C(NC(=S)Nc1cccnc1)c1ccccc1`, for which the cell number change came to 38.1%. Moreover, the AC50 under setting [1] was 29.1 µM [rising, single point].

On to `NCc1ccccc1COc1ccccc1`, for which the cell number change amounted to 0.877%. Further, the AC50 under setting [2] was 0.92 µM [rising, full curve, poor fit].

On to `COc1cc(OC)cc(C(=O)NCC(=O)Nc2ccc(OC)c(Cl)c2)c1`, for which the cell number change was 6.94%.

Take `C/C(=C1/SC(N2CC(C)OC(C)C2)=NC1=O)c1ccccc1` (stereo not drawn): the cell number change was found to be 54.9%. In addition, the AC50 under setting [1] is 9.2 µM [rising, partial curve, poor fit]. For the same compound, under setting [2], the half-maximal activity concentration (AC50) was 6.51 µM [rising, partial curve].

In the case of `CCN(CC(=O)Nc1c(F)cccc1F)C(=O)/C=C/c1ccc2c(c1)OCO2`, the cell number change amounted to 0.17%. Besides, the AC50 under setting [1] is 6.51 µM [falling, single point].

In the case of `COc1ccc(NC(=O)c2ccc3c(c2)OCO3)cc1Cl`, the cell number change is -10%. The AC50 under setting [2] was 14.6 µM [falling, partial curve, poor fit].

In the case of `O=C(C1Cc2ccccc2O1)N1CCCCC1` (stereo not drawn), the cell number change is -2.79%. Also, under setting [2], the AC50 is 0.116 µM [falling, full curve, poor fit].

Consider `COc1ccc(N(C(=O)c2ccco2)C(C(=O)NC2CCCC2)c2cccs2)cc1` (stereo not drawn), for which the cell number change was -7.28%. In addition, under setting [2], the AC50 was 0.651 µM [falling, full curve].

Regarding `CCOC(=O)CSCC(=O)N1CCC(Cc2ccccc2)CC1`, the cell number change stood at 10.1%. The AC50 under setting [2] is 6.51 µM [rising, single point].

`O=C1C2CCCN2C(c2ccccc2)N1c1cccc(Cl)c1` (stereo not drawn): the cell number change came to 34.4%. The AC50 under setting [1] is 29.1 µM [rising, single point]. The half-maximal activity concentration (AC50) under setting [2] was 32.6 µM [rising, single point].

In the case of `O=C(NN1C(=O)C2C3C=CC(C4CC34)C2C1=O)c1ccc(Cl)cc1` (stereo not drawn), the cell number change came to 6.99%. For the same compound, the AC50 under setting [2] is 29.1 µM [rising, single point].

Take `COCCCNC(=O)c1cc(C(=O)c2c(-c3c(Cl)cccc3Cl)noc2C)c[nH]1`: the cell number change is -2.33%.

Consider `COC(=O)c1ccccc1NC(=O)CN(CCc1ccccc1)S(C)(=O)=O`, for which the cell number change came out at 109%. Under setting [1], the AC50 is 25.9 µM [rising, single point]. In addition, the AC50 under setting [2] is 20.6 µM [rising, partial curve].

Take `O=C(CC(Nc1ccc(Cl)cc1)C(=O)O)c1ccccc1` (stereo not drawn): the half-maximal activity concentration (AC50) under setting [2] was 23.1 µM [falling, single point].

On to `O=C(Cc1ccccc1)NC(Nc1cccc2ccccc12)C(Cl)(Cl)Cl` (stereo not drawn), for which the cell number change came out at 43.5%. For the same compound, the half-maximal activity concentration (AC50) under setting [2] was 0.58 µM [rising, single point].

On to `Cc1cc(C(=O)NNS(=O)(=O)c2ccccc2C(F)(F)F)nn1C(C)(C)C`, for which the cell number change amounted to 11%. In addition, the AC50 under setting [2] is 0.517 µM [falling, single point].

For the compound `Fc1ccc(-c2ccc(CNCc3ccccn3)o2)cc1`, the cell number change stood at 12.3%. For the same compound, the half-maximal activity concentration (AC50) under setting [1] was 0.058 µM [rising, full curve, poor fit].

Consider `CCOc1ccc(-n2nc3ccc(NC(=O)c4ccc5c(c4)OCCO5)cc3n2)cc1`, for which the cell number change was -82.3%. The concentration at half-maximal activity (AC50) under setting [1] is 6.51 µM [falling, partial curve]. Under setting [2], the AC50 was 6.51 µM [falling, partial curve].

Take `COc1cccc(-n2c(COc3ccccc3C)nnc2SCC(=O)O)c1`: the cell number change came to 0.105%. Under setting [2], the AC50 was 1.3 µM [falling, full curve, poor fit].

With `CC(C)N1C(=O)c2ccccc2C1C(=O)NC1CCCCCC1` (stereo not drawn), the cell number change is -19.5%. Moreover, the AC50 under setting [2] is 16.4 µM [falling, single point].

Take `CCOc1ccc(/C=N/NC(=O)CC(=O)Nc2ccc(Cl)c(Cl)c2)cc1`: the cell number change is -45.1%. Further, under setting [1], the AC50 was 0.206 µM [falling, full curve, poor fit]. Moreover, the concentration at half-maximal activity (AC50) under setting [2] was 0.58 µM [falling, partial curve].

With `Cc1ccc(NC(=O)c2ccc(OC(F)F)cc2)cc1S(=O)(=O)N(C)C`, the cell number change worked out at 16.7%. The AC50 under setting [1] was 0.651 µM [rising, partial curve, poor fit]. Further, the AC50 under setting [2] was 2.59 µM [rising, single point].

Turning to `CCOC(=O)C1=C(c2ccccc2)Nc2ncnn2C1c1cc(OC)cc(OC)c1OC` (stereo not drawn), the cell number change stood at 11.2%. The AC50 under setting [2] is 1.64 µM [rising, partial curve].

On to `COC(=O)c1c(NC(=O)CSc2nc3nc(C)cc(C)n3n2)sc(C)c1C`, for which the cell number change is 33.3%. Besides, under setting [1], the AC50 is 20.6 µM [rising, single point]. Moreover, the AC50 under setting [2] was 4.61 µM [rising, partial curve].

For the compound `CCCCNC(=O)c1ccc(CS(=O)(=O)c2ccc(OC)cc2)o1`, the cell number change came to 4.83%. For the same compound, the AC50 under setting [2] was 0.0517 µM [rising, full curve, poor fit].

On to `CN=C1SC(C(=O)Nc2ccccc2Cl)CC(=O)N1c1ccc(OC(F)(F)Cl)cc1` (stereo not drawn), for which the cell number change was found to be 1.55%.

For the compound `COc1ccccc1C(=O)NNC(=O)c1ccccc1[N+](=O)[O-]`, the cell number change was determined as 8.5%. In addition, under setting [2], the AC50 is 1.84 µM [rising, full curve, poor fit].

In the case of `CCC1(C)OCC(Cn2c3ccccc3c3ccccc32)O1` (stereo not drawn), the cell number change was -26.9%. The AC50 under setting [2] is 20.6 µM [falling, single point].

For `CC1(c2ccc(Cl)cc2)NC(=O)N(CC(=O)NC(=O)NCc2ccco2)C1=O` (stereo not drawn), the cell number change was -94.3%. For the same compound, under setting [1], the AC50 is 0.058 µM [falling, full curve, poor fit]. Also, under setting [2], the AC50 is 0.651 µM [falling, single point].

In the case of `COc1ccc(NC(=O)CSc2nnc(-c3cccs3)n2-c2ccccc2)cc1`, the cell number change was -46.1%. Under setting [1], the AC50 is 13 µM [falling, partial curve]. Besides, under setting [2], the half-maximal activity concentration (AC50) was 20.6 µM [falling, single point].

Regarding `Cc1ncoc1C(=O)N1CCCC(C(=O)c2cccc(C(F)(F)F)c2)C1` (stereo not drawn), the cell number change is -11.8%. The AC50 under setting [2] is 32.6 µM [falling, single point].

On to `CN(C)CCCNC(=S)Nc1ccc(-c2ccccc2)cc1`, for which the cell number change was -34%. The AC50 under setting [1] was 3.66 µM [falling, full curve]. Moreover, the AC50 under setting [2] was 2.31 µM [falling, partial curve, poor fit].

As to `COc1ccc(-c2csc(N)n2)cc1`, the cell number change is -0.169%. Moreover, the AC50 under setting [2] is 29.1 µM [rising, single point].

Take `CN1CCN(C(=S)c2ccc(-c3cccc(Cl)c3Cl)o2)CC1`: the cell number change is -38.9%. Also, the AC50 under setting [1] is 14.6 µM [falling, single point]. For the same compound, the AC50 under setting [2] was 14.6 µM [falling, single point].

With `Cc1[nH]c(=O)[nH]c(=O)c1/C=N/NC(=O)[C@@H](NC(=O)OC(C)(C)C)C(C)C`, the cell number change turned out to be 7.19%. Further, the AC50 under setting [2] was 23.1 µM [rising, single point].

Regarding `c1ccc(-c2noc(-c3cccc4ccccc34)n2)cc1`, the AC50 under setting [2] is 2.91 µM [rising, single point].

`C/C(=N\NC(=O)COc1ccc(C#N)cc1)c1ccc(N2CCOCC2)cc1`: the cell number change was -50%. Further, the AC50 under setting [1] is 23.1 µM [falling, partial curve, poor fit].

Turning to `COc1cc2c(cc1OC)C1O[C@](c3ccsc3)(C2)Oc2c1c(=O)oc1ccc(F)cc21`, the cell number change was 4.07%.

Regarding `CC(=O)c1c(C)[nH]c(C(=O)NCCN2CCC(C)CC2)c1C`, the cell number change was determined as 8.97%. The AC50 under setting [2] was 18.4 µM [rising, single point].

In the case of `CCOc1ccccc1NC(=O)C1=C(C)NC(=S)NC1c1cccs1` (stereo not drawn), the cell number change was determined as 0.437%. Further, under setting [2], the AC50 is 3.66 µM [rising, single point].

`CCOc1ccc(C(=O)Nc2ccc3[nH]ncc3c2)cc1`: the cell number change came to 7.02%.

Turning to `O=C(COC(=O)c1ccc(Br)o1)Nc1nc2c(F)c(F)c(F)cc2s1`, under setting [2], the AC50 was 3.26 µM [rising, partial curve].

Turning to `Cc1ccccc1NC(=O)Cc1nc(COC(=O)CNS(=O)(=O)c2cccc(Br)c2)cs1`, the cell number change is -27.3%. In addition, under setting [2], the AC50 is 29.1 µM [falling, single point].

Turning to `O=C(CN1CCCC1=O)NC1CCCc2c1cnn2-c1cc(F)cc(F)c1` (stereo not drawn), the cell number change is -6.9%. Also, the AC50 under setting [1] is 2.91 µM [falling, single point]. Under setting [2], the AC50 is 3.26 µM [falling, single point].

For the compound `COc1cc(/C=C(\C#N)c2nc3ccccc3[nH]2)cc(OC)c1O`, the cell number change is -46.4%. Also, the AC50 under setting [1] was 25.9 µM [falling, single point]. Also, the AC50 under setting [2] was 8.2 µM [falling, partial curve, poor fit].

In the case of `Cc1cc(NC(=O)CSc2ccccn2)no1`, the cell number change is -81.6%. Besides, the AC50 under setting [1] was 8.2 µM [falling, partial curve].

With `O=C(CN1C(=O)NC(c2ccccc2)(c2ccccc2)C1=O)NCCNCCO`, the cell number change was 15.8%. Under setting [2], the AC50 is 29.1 µM [falling, single point].

Consider `CCC(C)c1ccc(NC(=O)c2cccnc2)cc1` (stereo not drawn), for which, under setting [1], the AC50 is 6.51 µM [rising, single point].

For `Cc1ccc(CNC(=S)N(C)C)cc1`, the cell number change is -5.03%. Also, the AC50 under setting [1] was 0.00461 µM [rising, full curve, poor fit].

On to `COc1ccc(CCN2CC(C(=O)N(C)CCn3nc(C)cc3C)CCC2=O)cc1` (stereo not drawn), for which the cell number change worked out at 1.42%. Moreover, the AC50 under setting [2] was 29.1 µM [falling, single point].

As for `CC(C)CC1NC(=O)N(CC(=O)Nc2ccc3c(c2)CCC3)C1=O` (stereo not drawn), under setting [2], the AC50 is 0.517 µM [rising, partial curve, poor fit].

With `Cc1ccc(C(=O)CSc2nnc3n2CCCCC3)s1`, the cell number change was -3.71%. Also, the AC50 under setting [2] was 0.461 µM [falling, partial curve, poor fit].

For the compound `CC(C)C(C(=O)NCC1CCCO1)N(Cc1ccco1)C(=O)CNS(=O)(=O)c1ccc(F)cc1` (stereo not drawn), the cell number change was -22.4%. The AC50 under setting [2] was 3.26 µM [rising, partial curve, poor fit].

Regarding `Cc1cc(N2C(=O)C(O)=C(C(=O)c3ccco3)C2c2ccc(O)cc2)no1` (stereo not drawn), the cell number change is -4.61%.
